No constants are given. Whether binding was seen depends on the method and setting. For some of these results: Binding seen in cells or lysates may run through a third protein. Some binding calls cover weakened binding; strength is not graded here. Where a sequence is shown, tags or fusion partners need not be part of it.
Columns and labels:
[1] = biological target: T1, purified recombinant His-tagged VDR (full-length, SF9 insect cell produced) (human) (UniProt P11473); test: in vitro interaction of purified proteins (FIGS. 4D, 5F)
T1 sequence (acetylated (FIG. 5F); acetylated lysine at 91 (FIG. 5G), looked up): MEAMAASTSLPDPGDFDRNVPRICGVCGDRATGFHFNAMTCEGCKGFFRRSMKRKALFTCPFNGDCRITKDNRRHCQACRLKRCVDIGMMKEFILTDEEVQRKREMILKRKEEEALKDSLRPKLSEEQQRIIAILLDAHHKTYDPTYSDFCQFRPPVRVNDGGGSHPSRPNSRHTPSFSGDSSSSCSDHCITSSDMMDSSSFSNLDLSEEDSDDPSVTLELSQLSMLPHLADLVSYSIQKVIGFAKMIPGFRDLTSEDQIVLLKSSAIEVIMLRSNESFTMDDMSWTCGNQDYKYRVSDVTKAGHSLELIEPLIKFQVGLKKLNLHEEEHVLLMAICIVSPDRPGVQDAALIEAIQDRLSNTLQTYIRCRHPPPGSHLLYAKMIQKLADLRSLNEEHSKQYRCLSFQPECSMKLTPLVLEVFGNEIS

By UniProt entry, the sequences of proteins in these tests, tags left out. Where a name states a change or a piece, a line headed by the entry shows the natural chain unless it says otherwise.
UniProt Q9H8M2: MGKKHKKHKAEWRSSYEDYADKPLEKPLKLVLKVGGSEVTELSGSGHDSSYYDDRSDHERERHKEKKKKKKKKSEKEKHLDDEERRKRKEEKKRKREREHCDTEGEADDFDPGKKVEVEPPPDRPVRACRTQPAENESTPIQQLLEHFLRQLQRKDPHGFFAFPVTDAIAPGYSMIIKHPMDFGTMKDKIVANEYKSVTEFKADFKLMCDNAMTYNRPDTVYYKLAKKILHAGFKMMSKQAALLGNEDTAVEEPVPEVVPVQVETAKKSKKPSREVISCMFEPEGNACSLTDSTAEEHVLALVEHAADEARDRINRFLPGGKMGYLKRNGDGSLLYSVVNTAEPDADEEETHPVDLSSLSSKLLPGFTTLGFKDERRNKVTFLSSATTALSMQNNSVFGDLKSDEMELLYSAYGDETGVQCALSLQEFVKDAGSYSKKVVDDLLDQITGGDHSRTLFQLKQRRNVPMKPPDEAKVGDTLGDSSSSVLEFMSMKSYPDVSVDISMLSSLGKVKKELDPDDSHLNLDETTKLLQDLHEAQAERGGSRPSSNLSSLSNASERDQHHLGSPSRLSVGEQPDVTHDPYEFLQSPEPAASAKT

[2] = biological target: T1, purified recombinant His-tagged VDR (full-length, SF9 insect cell produced) (human); test: in vitro interaction of purified proteins (FIG. 4D)
[3] = biological target: T2, HA-tagged VDR (vitamin D receptor), wild type (human) (UniProt P11473); test: co-immunoprecipitation, Western blot and MudPIT (title of FIGS. 4A-4L)
T2 sequence (acetylated lysine at 91 (K91Ac), looked up): T1 sequence (acetylated (FIG. 5F); acetylated lysine at 91 (FIG. 5G), looked up)

[4] = biological target: T2, HA-tagged VDR (vitamin D receptor), wild type (human); test: co-immunoprecipitation from 293T cells, Western blot; interaction decreased with VDR ligand (Cal) and with iBRD9

binding [1]	binding [2]	binding [3]	binding [4]	Substance
binds	binds	–	–	GST-tagged bromodomain of BRD9 (from UniProt Q9H8M2 134-239)
–	–	binds	binds	endogenous bromodomain-containing protein 9 (BRD9) (from UniProt Q9H8M2 1-597)

Source: patent US20200129532A1
